In PMC8809903 one finds binding data, which are given here for one molecule.

Protein sequences, listed by entry. Tags and fused reporters are not part of them. Lines headed by an entry give the natural chain unless they say otherwise; changes in a name come on top.
UniProt Q16651: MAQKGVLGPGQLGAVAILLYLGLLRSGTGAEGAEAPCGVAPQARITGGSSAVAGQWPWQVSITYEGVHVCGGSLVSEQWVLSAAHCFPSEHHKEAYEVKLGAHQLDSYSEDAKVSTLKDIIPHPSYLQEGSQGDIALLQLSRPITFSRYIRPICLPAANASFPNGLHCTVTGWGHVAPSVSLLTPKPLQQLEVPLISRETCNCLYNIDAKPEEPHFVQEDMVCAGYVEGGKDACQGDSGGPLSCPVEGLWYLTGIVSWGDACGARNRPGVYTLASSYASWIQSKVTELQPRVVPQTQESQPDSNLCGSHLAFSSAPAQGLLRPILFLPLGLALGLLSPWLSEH

These are yes or no findings as the source states them, for the method shown. In cells and extracts the contact can be indirect. Binding calls can cover weak binding; strength is not graded here.

This assay concerns the target Serine Protease 8 (PRSS8) (human (endogenous in the human ovarian cell lines used)) (UniProt Q16651). Kind of assay: co-IP; cell lysate with 1 ug of the corresponding antibody overnight at 4 C, protein A agarose beads 2-4 h at 4 C, western blot; immunoprecipitation of PRSS8 and of SCNN1A.

B1: sodium channel epithelial 1alpha subunit (SCNN1A) (protein, UniProt P37088 1-669)
chain: MEGNKLEEQDSSPPQSTPGLMKGNKREEQGLGPEPAAPQQPTAEEEALIEFHRSYRELFEFFCNNTTIHGAIRLVCSQHNRMKTAFWAVLWLCTFGMMYWQFGLLFGEYFSYPVSLNINLNSDKLVFPAVTICTLNPYRYPEIKEELEELDRITEQTLFDLYKYSSFTTLVAGSRSRRDLRGTLPHPLQRLRVPPPPHGARRARSVASSLRDNNPQVDWKDWKIGFQLCNQNKSDCFYQTYSSGVDAVREWYRFHYINILSRLPETLPSLEEDTLGNFIFACRFNQVSCNQANYSHFHHPMYGNCYTFNDKNNSNLWMSSMPGINNGLSLMLRAEQNDFIPLLSTVTGARVMVHGQDEPAFMDDGGFNLRPGVETSISMRKETLDRLGGDYGDCTKNGSDVPVENLYPSKYTQQVCIHSCFQESMIKECGCAYIFYPRPQNVEYCDYRKHSSWGYCYYKLQVDFSSDHLGCFTKCRKPCSVTSYQLSAGYSRWPSVTSQEWVFQMLSRQNNYTVNNKRNGVAKVNIFFKELNYKTNSESPSVTMVTLLSNLGSQWSLWFGSSVLSVVEMAELVFDLLVIMFLMLLRRFRSRYWSPGRGGRGAQEVASTLASSPPSHFCPHPMSLSLSQPGPAPSPALTAPPPAYATLGPRPSPGGSAGASSSTCPLGGP
As for B1, the binding result was “binds”.
